How the values were obtained:
[1] = tested on: CD-HFD-fed Flox and LAKO mice; assay: Caspase-6 inhibitor Z-VEID-FMK in CD-HFD-fed Flox and LAKO mice; type: in vivo; conditions: 5 mg/kg i.p. every other day for two weeks after 6 weeks CD-HFD
Source text: FIG. 4A. […] Scale bar=50 μm. FIG. 4B. […] FIG. 4F. […] Scale bar=100 μm. FIG. 4G. […] Scale bar=50 μm.
FIG. 6A. […] FIG. 6B. […] FIG. 6C. […] FIG. 6D. […] FIG. 6E. […] FIG. 6F.
FIGS. 14A-14G. […] FIG. 14A. […] Scale bar=100 μm.

CD-HFD fed C57BL/6J mice = assay: AMPK agonist A-769662 in CD-HFD-induced NASH, C57BL/6J mice; type: in vivo; conditions: 25 mg/kg i.p. once per day for two weeks after 6 weeks CD-HFD
Protocol: FIGS. 4A-4L. Both an AMPK agonist and a caspase-6 inhibitor therapeutically improve liver damage. FIG. 4A-4I. C57BL/6J mice were fed CD-HFD for 6 weeks, followed by intraperitoneally injection of 25 mg/kg A-769662 or vehicle daily for 2 weeks while continuous CD-HFD. FIG. 4A. Liver sections stained as indicated: TUNEL and DAPI. In the merged image section, the different stains correspond to the grayscale shades as indicated in the single stained images to the left. Scale bar=50 μm. FIG. 4B. Quantification of TUNEL-positive nuclei per field in FIG. 4A. n=7. FIG. 4C-4E. Serum ALT (FIG. 4C), AST (FIG. 4D) and ALP (FIG. 4E). n=7. FIG. 4F. H&E and Sirius red staining of liver sections as indicated. Scale bar=100 μm. FIG. 4G. Quantification of liver fibrosis area (% of total area) in FIG. 4F. n=7. FIG. 4H. Liver hydroxyproline. n=8. FIG. 4I. Expression of Tgfb, Timp1, Col1a1, Col3a1, Pdgfa, Pdgfb, Pdgfra and Ddr2 in livers. n=8. *, P<0.05, Student's unpaired t test. FIGS. 4J-4L. Flox and LAKO mice were fed CD-HFD for 6 weeks, followed by intraperitoneally injection of 5 mg/kg VEID (SEQ ID NO: 71) or vehicle every other day for 2 weeks while continuous feeding. FIG. 4J. […] Quantification of TUNEL-positive nuclei per field in FIG. 4J. n=5-6. […]
FIGS. 5A-5K. […] Quantification of aCasp6 staining per field in FIG. 5I. n=7. […]

Compound | body weight [1] | liver weight [1] | body weight (CD-HFD fed C57BL/6J mice) | liver weight (CD-HFD fed C57BL/6J mice)
Z-VEID-FMK (N-terminal Z (Cbz), C-terminal FMK) | did not affect | did not affect | – | –
N#Cc1c(O)c2c(-c3ccc(-c4ccccc4O)cc3)csc2[nH]c1=O [A-769662] | – | – | no effect | no effect

From patent US20220184172A1, “AMPK/CASPASE-6 AXIS CONTROLS LIVER DAMAGE IN NONALCOHOLIC STEATOHEPATITIS” (The Regents of the University of California, priority 2019, published 2022)
